Experimental data: PubChem BioAssay AID602196 (INSERM, 2012)
The whole screen tested about 23,000 reagents; shown is an unselected part. Over the whole deposit, 455 (2%) got an active call. 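Active includes both protection and sensitisation; some change values fall well beyond the stated -50 to +50 range.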 A number with no mark means an inactive call. Not all columns of the deposit are shown. Not stated in the record: the amount of reagent.

Assay: 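Modifiers of cisplatin sensitivity in A549 cells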
System: human A549 lung cancer cells
Knock-down reagent: siRNA pair against human genes
Duration: 48 h transfection before cisplatin; time from cisplatin to read-out not stated
Treatment: cisplatin at a dose killing half of control-siRNA cells; exact dose and duration not given
Read-out: 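Cisplatin cell death as a shift from the 50% death seen with control siRNA; siRNAs toxic or growth-blocking alone scored 0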
Reading the numbers: two-siRNA summed score (-2 to +2): higher = both siRNAs protect from cisplatin killing; -2 means both sensitise
Rule for the call: 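siRNAs harmful alone (LDH or WST-1) get 0; others get +1 for less and -1 for more cisplatin killing; genes are active when the two siRNAs give the same sign, summing to ±2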
Meaning of the calls: active = both siRNAs shift cisplatin killing the same way; inactive = no consistent shift, or siRNA harmful alone

For AHI1, the entry reads two-siRNA summed score (-2 to +2) = 0.
STX4 gave two-siRNA summed score (-2 to +2) = 1.
Against LOC388735, the values are two-siRNA summed score (-2 to +2) = 0.
After knock-down of OSBPL11, the record shows two-siRNA summed score (-2 to +2) = 0.
PSME3 showed two-siRNA summed score (-2 to +2) = 1.
Depletion of LOC400880 gave: two-siRNA summed score (-2 to +2) = 0.
Depletion of XRN1 resulted in: two-siRNA summed score (-2 to +2) = 0.
BRWD3 showed two-siRNA summed score (-2 to +2) = 0.
KIAA1210 gave two-siRNA summed score (-2 to +2) = 0.
For ADAMTS13, the entry reads two-siRNA summed score (-2 to +2) = -1.
For KLRD1, the entry reads two-siRNA summed score (-2 to +2) = 0.
Against KIAA1223, the values are two-siRNA summed score (-2 to +2) = 0.
Knock-down of HMGN5 resulted in: two-siRNA summed score (-2 to +2) = 0.
Against PSMD14 the deposit lists two-siRNA summed score (-2 to +2) = 0.
CTNNA2 showed two-siRNA summed score (-2 to +2) = 0.
Silencing of TOP3B resulted in: two-siRNA summed score (-2 to +2) = 0.
After knock-down of GRM3, the screen gave two-siRNA summed score (-2 to +2) = 0.
LINC03122 scored two-siRNA summed score (-2 to +2) = 0.
JSRP1 showed two-siRNA summed score (-2 to +2) = 0.
Against KRABD2 the deposit lists two-siRNA summed score (-2 to +2) = 0.
After knock-down of RPS25, the screen gave two-siRNA summed score (-2 to +2) = 0.
For MSANTD4, the values are two-siRNA summed score (-2 to +2) = 0.
SCGB1A1 scored two-siRNA summed score (-2 to +2) = 0.
LOC440151 scored two-siRNA summed score (-2 to +2) = 0.
Against SPATA19 the deposit lists two-siRNA summed score (-2 to +2) = 0.
Knock-down of LOC441809 resulted in: two-siRNA summed score (-2 to +2) = 0.
For LOC388454 the deposit lists two-siRNA summed score (-2 to +2) = 0.
After knock-down of NPIPB12 the results were two-siRNA summed score (-2 to +2) = 0.
With knock-down of LOC442715, the record shows two-siRNA summed score (-2 to +2) = 1.
After knock-down of OR52E8, the screen gave two-siRNA summed score (-2 to +2) = 0.
Against TPX2 the deposit lists two-siRNA summed score (-2 to +2) = -1.

In a second layout: results already given.
Gene	two-siRNA summed score (-2 to +2)
LOC441809	0
LOC388454	0
NPIPB12	0
